In publication PMC11497106, “GJB2 Promotes HCC Progression by Activating Glycolysis Through Cytoplasmic Translocation and Generating a Suppressive Tumor Microenvironment Based on Single Cell RNA Sequencing” (Advanced Science, 2024):
These are yes or no findings as the source states them, for the method shown. In cells and extracts the contact can be indirect. Some entries that bind do so weakly or less than the wild type.

Protein sequences, listed by entry. Tags and fused reporters are not part of them.
UniProt P25963: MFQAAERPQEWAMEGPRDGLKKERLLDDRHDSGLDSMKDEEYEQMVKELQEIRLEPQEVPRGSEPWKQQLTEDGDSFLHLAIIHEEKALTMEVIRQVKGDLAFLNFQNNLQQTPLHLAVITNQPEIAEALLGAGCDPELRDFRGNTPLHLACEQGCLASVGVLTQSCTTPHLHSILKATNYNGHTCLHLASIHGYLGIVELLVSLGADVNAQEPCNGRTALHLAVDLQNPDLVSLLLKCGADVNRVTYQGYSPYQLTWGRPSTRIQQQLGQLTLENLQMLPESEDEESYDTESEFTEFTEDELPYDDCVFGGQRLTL

Biological target: IκBα (human (endogenous in HCC cell lines)) (UniProt P25963)
Test: co-IP; lysates of HCC cell lines; 5 µg monoclonal antibody against the target protein in 500 µL lysate overnight at 4 °C, then Protein A and Protein G; western blot. IκBα-ASB2 tested 'after transfection'. GJB2-ASB2 also tested after treating cells with DMSO or Salvianolic acid B (binding weakened by Sal B)

B1: ankyrin repeats and SOCS box containing 2 (ASB2) (protein, UniProt Q96Q27 1-635)
chain: MATQISTRGSQCTIGQEEYSLYSSLSEDELVQMAIEQSLADKTRGPTTAEATASACTNRQPAHFYPWTRSTAPPESSPARAPMGLFQGVMQKYSSSLFKTSQLAPADPLIKAIKDGDEEALKTMIKEGKNLAEPNKEGWLPLHEAAYYGQVGCLKVLQRAYPGTIDQRTLQEETAVYLATCRGHLDCLLSLLQAGAEPDISNKSRETPLYKACERKNAEAVKILVQHNADTNHRCNRGWTALHESVSRNDLEVMQILVSGGAKVESKNAYGITPLFVAAQSGQLEALRFLAKYGADINTQASDNASALYEACKNEHEEVVEFLLSQGADANKTNKDGLLPLHIASKKGNYRIVQMLLPVTSRTRIRRSGVSPLHLAAERNHDEVLEALLSARFDVNTPLAPERARLYEDRRSSALYFAVVNNNVYATELLLQHGADPNRDVISPLLVAIRHGCLRTMQLLLDHGANIDAYIATHPTAFPATIMFAMKCLSLLKFLMDLGCDGEPCFSCLYGNGPHPPAPQPSSRFNDAPAADKEPSVVQFCEFVSAPEVSRWAGPIIDVLLDYVGNVQLCSRLKEHIDSFEDWAVIKEKAEPPRPLAHLCRLRVRKAIGKYRIKLLDTLPLPGRLIRYLKYENTQ
- binding: binds
